Laboratory results as given in PubChem BioAssay AID1487 (National Center for Advancing Translational Sciences (NCATS), 2009).
“And” between values parts separate entries of the source, which are not always exact repeats. Equal entries are not always repeated. Some of the results follow. Further columns of the screen follow, without active or inactive calls. The list favours compounds with an active or inconclusive main result. Potencies come from curve fits of mixed quality, noted in brackets.

Assay: qHTS Assay for Modulators of Lamin A Splicing
Conditions: HeLa LMNA splicing GFP/RFP minigene ratio, 48 h
Procedure, shortened: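 Read-out is the ratio of GFP to DsRed2 object intensity, acquired by 488 nm laser-scanning cytometry on HeLa lamin A-EGFP minigene reporter cells. Compound incubation 48 hrs at 37 °C in Opti-MEM with 2% FBS; DMSO 0.5% final.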

[1] = measured here: GFP splicing reporter channel
[2] = measured here: RFP viability control channel

Compound | AC50 [1] | AC50 [2]
COC(=O)c1sc(NC(=O)CSc2nncs2)c(C(=O)OC)c1C | 0.00891 µM [rising, full curve, poor fit] | 17.8 µM [rising, single point]
O=C(c1cc2c(=O)n3ccccc3nc2s1)N1CCN(Cc2ccc3c(c2)OCO3)CC1 | 2.51 µM [falling, partial curve] | 3.16 µM [falling, partial curve]
O=C(NCc1ccco1)c1ccc(N2CCCCC2)c([N+](=O)[O-])c1 | 12.6 µM [rising, partial curve] | 12.6 µM [rising, partial curve, poor fit]
Cn1c(CN2CCCC2)nc2cc(NC(=O)c3cccs3)ccc21 | 35.5 µM [rising, single point] | 17.8 µM [rising, single point]
Cc1n[nH]c(C)c1CCN(C)Cc1cn(C)nc1-c1ccccc1F | 3.55 µM [falling, full curve, poor fit] | 1.78 µM [falling, full curve]
O=C(CCNC(=O)c1ccccc1Cl)Nc1nc(-c2ccccc2Cl)cs1 | 35.5 µM [rising, single point] | 35.5 µM [rising, single point]
Cc1ccc(Cl)cc1NC(=O)Nc1cccc(OCc2cc(=O)n3ccccc3n2)c1 | 0.794 µM [rising, single point] | 
Cc1nn(C)c(C)c1Sc1ccc(Br)cc1 |  | 15.8 µM [rising, partial curve]
O=C(Nc1cccc(C(F)(F)F)c1)c1cccnc1N1CCN(c2ccccc2)CC1 |  | 35.5 µM [rising, single point]
O=C(O)CN(CCN(CC(=O)O)CC(=O)O)CC(=O)O | 22.4 µM [falling, single point] | 
O=S(=O)(c1ccc2c(c1)OCCO2)N1CCC(O)(c2ccc(Cl)cc2)CC1 |  | 22.4 µM [rising, partial curve]
O=C(NCC(c1ccco1)S(=O)(=O)c1cccs1)c1ccc(F)c(F)c1 (stereo not drawn) | 3.55 µM [rising, partial curve] | 
C[C@@H]1C(SC2Cn3cnc[n+]3C2)=C(C(=O)[O-])N2C(=O)[C@H]([C@@H](C)O)[C@@H]12 (stereo partly drawn) | 0.562 µM [falling, partial curve, poor fit] | 35.5 µM [falling, single point]
Cc1cccc(N(CC(O)CON=C2c3ccccc3-c3ccccc32)S(C)(=O)=O)c1 (stereo not drawn) | 20 µM [rising, single point] | 28.2 µM [rising, single point]
CCOc1ccccc1NC(=O)CC1Nc2cc(C)c(C)cc2NC1=O (stereo not drawn) | 15.8 µM [rising, partial curve, poor fit] | 14.1 µM [rising, single point]
CS/C(=C\[N+](=O)[O-])Nc1ccc(F)cc1 | 15.8 µM [rising, partial curve, poor fit] | 
O=C(CCn1nc(-c2ccc(Cl)cc2)ccc1=O)NCCc1ccccc1 | 0.251 µM [falling, full curve] | 0.158 µM [falling, full curve]
CN(C)S(=O)(=O)c1ccc2c(c1)/C(=C/c1cc3c([nH]1)CCCC3)C(=O)N2 | 1.58 µM [rising, partial curve] | 3.16 µM [rising, full curve]
O=C(c1cccc(C(=O)N2CCc3ccccc32)n1)N1CCc2ccccc21 | 35.5 µM [rising, single point] | 31.6 µM [rising, single point]
Cc1ccc(C(NC(=O)NC(C)c2ccccc2)C(Cl)(Cl)Cl)cc1F (stereo not drawn) |  | 12.6 µM [rising, single point]
CC(c1ccco1)N(C(=O)CSc1ccc(Br)cc1)c1ccccn1 (stereo not drawn) | 35.5 µM [rising, single point] | 31.6 µM [rising, single point]
C=CCc1cccc(/C=N/NC(=O)CNc2ccccc2)c1O | 11.2 µM [rising, partial curve] | 15.8 µM [rising, partial curve]
COc1ccc(C(=O)N2c3cc4c(cc3C(C)=CC2(C)C)OCO4)cc1 | 8.91 µM [rising, partial curve] | 10 µM [rising, partial curve]
Cc1cccc(NC(=O)c2sc3nc4c(c(-c5ccco5)c3c2N)CCC4)c1 | 0.0141 µM [rising, full curve, poor fit] | 3.98 µM [rising, partial curve, poor fit]
CCN1C(=O)/C(=C\c2nc3ccccc3c(=O)n2CC)c2ccccc21 | 2.82 µM [falling, full curve] | 

Compound | AC50 [1] | AC50 [2]
COc1ccc2[nH]cc(CCNc3ccnc(-c4cccc(C#N)c4)n3)c2c1 | 20 µM [falling, single point] | 35.5 µM [falling, single point]
Cc1onc(-c2ccccc2Cl)c1C(=O)N1CCN(c2ccccc2)CC1 |  | 35.5 µM [rising, single point]
Clc1cccc(Cl)c1NC1=NCCN1 | 12.6 nM [falling, full curve] and 20 nM [rising, full curve, poor fit] and 10 µM [falling, single point] | 282 nM [falling, partial curve, poor fit] and 5.62 nM [rising, full curve, poor fit] and 35.5 µM [falling, single point]
CC(C)c1ccc(/C=C/C(=O)NC(=S)Nc2ccc(CN3CCOCC3)cc2)cc1 |  | 12.6 µM [rising, partial curve]
CCCn1nnc(NC(=O)/C=C/c2cc(Br)ccc2OC)n1 |  | 0.0355 µM [falling, full curve, poor fit]
CC(=O)c1cccc(NS(=O)(=O)c2cc3c(cc2C)N(C(C)=O)CCO3)c1 | 14.1 µM [falling, partial curve, poor fit] | 35.5 µM [falling, single point]
CCc1cccc2c(C(=O)COC(=O)C3=NNC(=O)CC3)c[nH]c12 | 0.794 µM [rising, full curve, poor fit] | 1.41 µM [rising, partial curve]
N#C/C(=C(/O)COC(=O)CCc1ccc(S(=O)(=O)N2CCOCC2)cc1)c1nc2ccccc2[nH]1 | 0.112 µM [rising, full curve, poor fit] | 
CC(=O)Nc1ccc(SCC(=O)Nc2cc(C)on2)cc1 |  | 5.01 µM [rising, partial curve]
CCOC(=O)c1nn(-c2ccc(Br)cc2)cc1C(=O)c1cccc2ccccc12 | 7.08 µM [falling, partial curve] | 
Cc1nc(N2CCCCC2)sc1C(=O)c1cccc([N+](=O)[O-])c1 | 22.4 µM [rising, single point] | 
CCNC(=O)c1ccc(C2SCC(=O)N2CCc2ccccc2)cc1 (stereo not drawn) | 10 µM [rising, partial curve, poor fit] | 12.6 µM [rising, partial curve, poor fit]
O=C1[C@H]2CCCC[C@H]2C(=O)N1CCCCN1CCN(c2nsc3ccccc23)CC1 | 20 µM [rising, single point] | 12.6 µM [rising, partial curve, poor fit]
Cc1ccc(-n2c(O)c(C=Nc3ccc(S(=O)(=O)Nc4ncccn4)cc3)c3ccccc3c2=O)cc1C |  | 10 µM [rising, partial curve, poor fit]
COc1cccc(CNS(=O)(=O)c2ccc3c(c2)C(C(C)C)C(=O)N3)c1 (stereo not drawn) | 0.00447 µM [falling, full curve, poor fit] | 0.00891 µM [falling, full curve, poor fit]
COCCN1C=C2C(=O)C(C)(OC(=O)CCC(=O)OC)C(=O)C(Br)=C2C=C1c1ccc(OC)cc1 (stereo not drawn) | 0.708 µM [rising, full curve, poor fit] | 1.58 µM [rising, partial curve, poor fit]
Cc1ccc(NC(=O)CC2Sc3ccc(C(F)(F)F)cc3NC2=O)cc1 (stereo not drawn) | 0.00501 µM [falling, full curve, poor fit] | 0.00501 µM [falling, full curve, poor fit]
COc1ccc(-c2nc3cnc(N4CCN(C)CC4)nc3n(Cc3cccc(OC)c3)c2=O)cc1 | 22.4 µM [falling, single point] | 12.6 µM [falling, single point]
O=C(Nc1ccc(Cc2ccncc2)cc1)c1ccco1 | 11.2 µM [rising, single point] | 14.1 µM [rising, single point]
Cc1cc(C(=O)N/N=C/c2ccc(-c3ccccc3Cl)o2)n[nH]1 |  | 10 µM [rising, partial curve]
O=C1NC(=O)/C(=C\c2ccccc2OCc2ccc([N+](=O)[O-])cc2)N1 |  | 35.5 µM [rising, single point]
CCCCCOc1ccc(CSC(=N)N)cc1[N+](=O)[O-] |  | 14.1 µM [rising, single point]
COCCN(CCOC)S(=O)(=O)c1ccc(C(=O)Nc2nc3c(s2)CCc2ccccc2-3)cc1 | 10 µM [rising, partial curve, poor fit] | 7.08 µM [rising, full curve]
Cc1ccc(CNC(=O)CCCCCNc2nc(=S)[nH]c3ccccc23)cc1 | 11.2 µM [falling, single point] | 31.6 µM [falling, single point]

Some of the entries so far, with tabs.
Compound	AC50 [1]	AC50 [2]
COc1cccc(CNS(=O)(=O)c2ccc3c(c2)C(C(C)C)C(=O)N3)c1 (stereo not drawn)	0.00447 µM [falling, full curve, poor fit]	0.00891 µM [falling, full curve, poor fit]
COCCN1C=C2C(=O)C(C)(OC(=O)CCC(=O)OC)C(=O)C(Br)=C2C=C1c1ccc(OC)cc1 (stereo not drawn)	0.708 µM [rising, full curve, poor fit]	1.58 µM [rising, partial curve, poor fit]
Cc1ccc(NC(=O)CC2Sc3ccc(C(F)(F)F)cc3NC2=O)cc1 (stereo not drawn)	0.00501 µM [falling, full curve, poor fit]	0.00501 µM [falling, full curve, poor fit]
